PubChem BioAssay AID1259254 | NCATS, 2017
In all, the deposit lists about 59,000 reagents; shown is a part drawn at random. About 1,550 of them (2.6%) count as active. 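G2 share is only a proxy for re-replication; each gene was hit by three separate siRNAs, and active genes were retested.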 The raw values are shown without normalisation. Reagents against one gene are numbered here. The record does not give: the amount of reagent.

Assay: 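Genome-wide screen for genes that prevent DNA re-replication in cancer cells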 (primary screen)
System: human HCT116 colorectal cancer cells
Knock-down reagent: single siRNA against human genes
Timing: 3 days
Detection: 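Nuclei stained with Hoechst and imaged; cell-cycle phase assigned by DNA content; G2 share scaled per plate, non-targeting siRNA 0%, GMNN siRNA 100%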
Scale: G2 robust z-score and G2 cells, % of GMNN control: higher = more G2 cells, more excess DNA replication; raw share of cells in G2: higher = larger share of cells with G2 DNA content
Call rule: 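Active siRNAs have a G2 robust z of 5 or more median absolute deviations over the median, which in these data means about 38% or higher of GMNN control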

gene knocked down	reagent	G2 robust z-score	G2 cells, % of GMNN control	raw share of cells in G2 (%)	Call
SLC17A1	1	2.9	23.4	11.7	inactive
SLC17A1	2	-0.0113	2.89	5.54	inactive
SLC17A1	3	-1.26	-5.89	3.7	inactive
FIBIN	1	-0.109	2.2	4.53	inactive
FIBIN	2	0.131	3.89	5.1	inactive
FIBIN	3	0.988	9.92	8.89	inactive
SNN	1	-1.23	-5.67	2.62	inactive
SNN	2	5.79	43.7	21.2	active
SNN	3	-0.438	-0.115	3.31	inactive
RHOV	1	1.72	15.1	13.1	inactive
RHOV	2	0.177	4.21	6.24	inactive
RHOV	3	-1.05	-4.41	2.85	inactive
ADAM23	1	0.373	5.59	7.51	inactive
ADAM23	2	1.67	14.7	10.1	inactive
ADAM23	3	-0.376	0.322	4.03	inactive
TATDN2	1	-0.0145	2.87	6.63	inactive
TATDN2	2	-0.459	-0.261	3.83	inactive
TATDN2	3	1.15	11.1	7.43	inactive
RPL15P3	1	4.02	31.3	12	inactive
RPL15P3	2	0.888	9.21	7.33	inactive
RPL15P3	3	2.32	19.3	10.3	inactive
CARD16	1	1.57	14	11.5	inactive
CARD16	2	0.659	7.61	6.98	inactive
CARD16	3	1.63	14.5	9.64	inactive
CH25H	1	0.321	5.23	6.91	inactive
CH25H	2	0.13	3.88	6.63	inactive
CH25H	3	1.73	15.1	10.1	inactive
RIPOR1	1	0.152	4.03	6.34	inactive
RIPOR1	2	0.00788	3.02	5.96	inactive
RIPOR1	3	0.333	5.31	4.1	inactive
FHL1	1	1.9	16.3	9.02	inactive
FHL1	2	0.72	8.03	6.65	inactive
FHL1	3	0.0286	3.17	6.33	inactive
NBR1	1	0.835	8.84	8.73	inactive
NBR1	2	-0.189	1.64	4.87	inactive
NBR1	3	1.94	16.7	9.37	inactive
NHLRC3	1	-0.819	-2.8	2.81	inactive
NHLRC3	2	0.582	7.06	6.48	inactive
NHLRC3	3	-0.647	-1.59	3.95	inactive
MTHFS	1	0.294	5.04	7.88	inactive
MTHFS	2	0.496	6.46	5.93	inactive
MTHFS	3	-1.44	-7.17	3.65	inactive
OR52B2	1	1.01	10.1	7.23	inactive
OR52B2	2	0.279	4.93	4.82	inactive
OR52B2	3	-1.03	-4.31	1.82	inactive
STARD8	1	-0.853	-3.04	4.05	inactive
STARD8	2	-0.786	-2.56	2.33	inactive
STARD8	3	-0.207	1.51	5.36	inactive
TNS4	1	2.93	23.6	14.1	inactive
TNS4	2	0.782	8.47	5.65	inactive
TNS4	3	1.96	16.8	8.24	inactive
AFTPH	1	-0.689	-1.88	2.93	inactive
AFTPH	2	0.0811	3.54	5.76	inactive
AFTPH	3	-0.558	-0.959	2.87	inactive
ACP5	1	0.956	9.69	7.95	inactive
ACP5	2	0.821	8.74	6.94	inactive
ACP5	3	-0.551	-0.911	3.22	inactive
ZNF675	1	0.265	4.83	4.75	inactive
ZNF675	2	-0.501	-0.558	2.97	inactive
ZNF675	3	0.829	8.8	6.61	inactive
SGCE	1	-0.999	-4.06	2.18	inactive
SGCE	2	0.148	4.01	7.77	inactive
SGCE	3	-0.102	2.25	4.28	inactive
ARHGEF17	1	-0.296	0.882	5.73	inactive
ARHGEF17	2	-0.546	-0.871	3.58	inactive
ARHGEF17	3	3.09	24.7	12.4	inactive
MCM5	1	-0.769	-2.44	2.39	inactive
MCM5	2	1.9	16.3	11.7	inactive
MCM5	3	0.437	6.04	7.87	inactive
